PubChem BioAssay AID652243, Drosophila RNAi Screening Center – 2013
The deposit covers about 24,000 reagents; this is a random part of those that have a named target and a result. Of all reagents, 246 (1%) got an active call. 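Plates not normalised; calls are printed but the firefly/Renilla ratio behind them is not deposited; fold cut for lowering reported inconsistently.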 The raw values are shown without normalisation. A plus sign joins genes that one reagent is predicted to hit. The record does not give: the amount of reagent.

Purpose: 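Fly regulators of androgen-dependent reporter output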 (primary screen)
System: Drosophila S2R+ cells
Reagents: long dsRNA against Drosophila genes
Timing: 72 h (48 h, then 24 h hormone)
Treatment: synthetic androgen R1881 at 10 nM for 24 h
Measurement: 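Per-well raw luminescence of the androgen-driven firefly reporter and of the Renilla control, two replicates each, without normalisation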
Direction: firefly reporter light: higher = more light from androgen-responsive reporter; Renilla control light: higher = more constitutive control signal (cell number, transfection)
Rule for the call: 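Hit when the log firefly-to-Renilla ratio dropped or increased by a fixed fold versus the mean of GFP or LacZ controls across duplicate plates; lowering cut given as 1.5 and as 3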
Meaning of the calls: active = hit: reporter lowered or raised; inactive = no hit

gene | amplicon | firefly reporter light, replicate 1 | firefly reporter light, replicate 2 | Renilla control light, replicate 1 | Renilla control light, replicate 2 | Outcome
scaf6 | DRSC10075 | 94367 | 1.43e5 | 7.34e5 | 7.06e5 | inactive
scaf6 | DRSC10676 | 4.02e5 | 3.04e5 | 2.52e6 | 2.18e6 | inactive
Coq3 | DRSC03168 | 1.43e6 | 1.29e6 | 3.00e6 | 2.97e6 | inactive
CG32199 | DRSC09990 | 2.19e5 | 1.48e5 | 2.40e6 | 1.99e6 | inactive
Or10a | DRSC20264 | 3.38e5 | 5.50e5 | 2.74e6 | 4.41e6 | inactive
Or10a | DRSC27634 | 2.42e5 | 3.02e5 | 5.19e5 | 9.00e5 | inactive
Sry-alpha | DRSC16867 | 1.25e5 | 1.26e5 | 1.13e6 | 1.96e6 | inactive
Sry-alpha | DRSC29189 | 4.39e5 | 4.16e5 | 1.02e6 | 1.10e6 | inactive
Rab14 | DRSC03403 | 1.02e6 | 1.04e6 | 2.21e6 | 1.80e6 | inactive
Rab14 | DRSC28941 | 7.26e5 | 5.93e5 | 7.92e5 | 9.50e5 | inactive
Non1 | DRSC05954 | 7.19e5 | 7.96e5 | 1.01e6 | 1.04e6 | inactive
prt | DRSC16894 | 1.45e5 | 1.85e5 | 2.40e6 | 2.03e6 | inactive
step | DRSC03694 | 3.24e5 | 4.12e5 | 1.76e6 | 2.20e6 | inactive
step | DRSC03699 | 1.94e5 | 1.78e5 | 2.18e6 | 1.55e6 | inactive
blanks | DRSC09757 | 2.10e5 | 2.45e5 | 1.81e6 | 2.13e6 | inactive
CG16894 | DRSC06634 | 5.45e5 | 3.86e5 | 3.37e6 | 2.86e6 | inactive
CG16894 | DRSC21785 | 6.81e5 | 5.51e5 | 1.51e6 | 1.77e6 | inactive
CG14624 | DRSC18634 | 87498 | 79494 | 1.34e6 | 9.83e5 | inactive
CG14624 | DRSC25253 | 8.06e5 | 1.05e6 | 9.10e5 | 1.16e6 | inactive
CG6230 | DRSC01989 | 7.06e5 | 9.39e5 | 1.80e6 | 2.30e6 | inactive
CG13018 | DRSC06274 | 1.13e5 | 1.57e5 | 1.46e6 | 1.46e6 | inactive
NKCC | DRSC12140 | 17564 | 53817 | 3.12e5 | 2.98e5 | inactive
NKCC | DRSC12311 | 59459 | 71642 | 1.34e6 | 9.98e5 | inactive
dlp | DRSC10472 | 1.03e5 | 99770 | 1.96e6 | 1.61e6 | active
dlp | DRSC23803 | 4.71e5 | 3.56e5 | 5.84e5 | 5.23e5 | inactive
CG3927 + nsr | DRSC27267 | 4.12e5 | 3.35e5 | 5.44e5 | 4.61e5 | inactive
RhoGAP100F | DRSC15409 | 66719 | 49933 | 4.74e5 | 4.25e5 | inactive
RhoGAP100F | DRSC28096 | 3.03e5 | 3.07e5 | 9.69e5 | 1.52e6 | inactive
Invadolysin | DRSC15527 | 1.96e5 | 2.03e5 | 1.70e6 | 1.63e6 | inactive
jim | DRSC11889 | 42938 | 54958 | 4.39e5 | 4.82e5 | inactive
jim | DRSC23829 | 2.29e5 | 2.91e5 | 4.13e5 | 3.91e5 | inactive
IleRS-m | DRSC10506 | 1.22e5 | 1.45e5 | 1.53e6 | 1.55e6 | inactive
CG42562 | DRSC06453 | 1.09e5 | 1.29e5 | 2.57e6 | 2.57e6 | inactive
FMRFaR | DRSC08555 | 1.33e5 | 1.79e5 | 1.49e6 | 1.64e6 | inactive
St3 | DRSC04098 | 2.97e5 | 3.39e5 | 2.44e6 | 2.28e6 | inactive
St3 | DRSC04505 | 6.87e5 | 7.02e5 | 1.03e6 | 1.29e6 | inactive
Mdr50 | DRSC07467 | 1.03e5 | 1.23e5 | 1.79e6 | 1.79e6 | inactive
Mdr50 | DRSC23705 | 4.65e5 | 2.43e5 | 4.59e5 | 4.71e5 | inactive
CG4293 | DRSC18557 | 46925 | 65248 | 5.26e5 | 3.83e5 | inactive
Acsf3 | DRSC18146 | 3.07e5 | 4.89e5 | 2.65e6 | 3.30e6 | inactive
CG31792 | DRSC02604 | 84895 | 71792 | 1.24e6 | 5.91e5 | inactive
CG7992 | DRSC20070 | 1.71e5 | 1.39e5 | 5.40e5 | 3.54e5 | inactive
CG11362 | DRSC04106 | 4.15e5 | 3.77e5 | 3.37e6 | 2.93e6 | inactive
CG11362 | DRSC22032 | 6.89e5 | 5.41e5 | 2.93e6 | 1.65e6 | inactive
CG11362 | DRSC27136 | 2.68e5 | 2.60e5 | 7.44e5 | 8.08e5 | inactive
CG33282 | DRSC00422 | 73325 | 1.30e5 | 6.32e5 | 1.05e6 | inactive
Prx3 | DRSC15883 | 1.03e5 | 69344 | 7.92e5 | 6.35e5 | inactive
Prx3 | DRSC29107 | 9.33e5 | 6.05e5 | 1.53e6 | 1.29e6 | inactive
Doc1 | DRSC11146 | 2.54e5 | 3.11e5 | 3.22e6 | 2.52e6 | inactive
Doc1 | DRSC25859 | 3.66e5 | 4.50e5 | 9.55e5 | 8.00e5 | inactive
frma | DRSC18297 | 59409 | 46236 | 4.10e5 | 4.26e5 | inactive
frma | DRSC27843 | 1.40e6 | 9.19e5 | 4.09e6 | 1.76e6 | inactive
Wdr24 | DRSC14151 | 80277 | 77217 | 5.41e5 | 5.87e5 | inactive
Mhcl | DRSC13130 | 2.51e5 | 2.01e5 | 3.16e5 | 4.73e5 | inactive
Mhcl | DRSC14216 | 55138 | 59684 | 1.37e6 | 1.69e6 | active
Mhcl | DRSC16753 | 1.25e5 | 1.05e5 | 2.14e6 | 1.96e6 | inactive
CG10948 | DRSC09806 | 1.24e5 | 1.23e5 | 1.58e6 | 1.39e6 | inactive
ECSIT | DRSC12348 | 88705 | 37520 | 1.55e6 | 1.33e6 | inactive
CG11417 | DRSC18581 | 71259 | 68235 | 3.88e5 | 4.31e5 | inactive
CG4911 | DRSC10456 | 6.07e5 | 2.91e5 | 4.76e5 | 2.60e5 | inactive
CG11327 | DRSC02146 | 1.77e5 | 2.21e5 | 1.47e6 | 1.57e6 | inactive
CG3062 | DRSC18572 | 3.17e5 | 2.69e5 | 3.88e6 | 3.02e6 | inactive
CG17141 | DRSC15178 | 1.54e5 | 79264 | 2.03e6 | 1.55e6 | inactive
fau | DRSC12816 | 70044 | 1.02e5 | 1.55e5 | 1.00e5 | inactive
fau | DRSC12817 | 1.33e5 | 1.13e5 | 1.85e5 | 1.67e5 | inactive
fau | DRSC16943 | 65940 | 87875 | 7.30e5 | 1.09e6 | inactive
fau | DRSC16944 | 1.05e5 | 1.44e5 | 1.91e6 | 1.78e6 | inactive
fau | DRSC16945 | 3.13e5 | 3.22e5 | 2.00e6 | 2.37e6 | inactive
fau | DRSC22360 | 6.54e5 | 5.50e5 | 5.84e5 | 4.16e5 | inactive
fau | DRSC27672 | 2.73e5 | 2.24e5 | 5.16e5 | 6.40e5 | inactive
cnn | DRSC05422 | 2.07e5 | 2.52e5 | 7.45e5 | 7.69e5 | inactive
cnn | DRSC07596 | 57007 | 83550 | 1.73e6 | 1.73e6 | inactive
net | DRSC00309 | 83438 | 1.07e5 | 7.81e5 | 8.16e5 | inactive
Fuca | DRSC10591 | 2.43e5 | 1.72e5 | 2.20e6 | 1.85e6 | inactive

Reformatted: entries from further up.
{"gene":"CG11362","amplicon":"DRSC27136","firefly reporter light, replicate 1":2.68e5,"firefly reporter light, replicate 2":2.60e5,"Renilla control light, replicate 1":7.44e5,"Renilla control light, replicate 2":8.08e5,"Outcome":"inactive"}
{"gene":"CG33282","amplicon":"DRSC00422","firefly reporter light, replicate 1":73325,"firefly reporter light, replicate 2":1.30e5,"Renilla control light, replicate 1":6.32e5,"Renilla control light, replicate 2":1.05e6,"Outcome":"inactive"}
{"gene":"Prx3","amplicon":"DRSC15883","firefly reporter light, replicate 1":1.03e5,"firefly reporter light, replicate 2":69344,"Renilla control light, replicate 1":7.92e5,"Renilla control light, replicate 2":6.35e5,"Outcome":"inactive"}
{"gene":"Prx3","amplicon":"DRSC29107","firefly reporter light, replicate 1":9.33e5,"firefly reporter light, replicate 2":6.05e5,"Renilla control light, replicate 1":1.53e6,"Renilla control light, replicate 2":1.29e6,"Outcome":"inactive"}
{"gene":"Doc1","amplicon":"DRSC11146","firefly reporter light, replicate 1":2.54e5,"firefly reporter light, replicate 2":3.11e5,"Renilla control light, replicate 1":3.22e6,"Renilla control light, replicate 2":2.52e6,"Outcome":"inactive"}
